The target of this test is T1, TRIB2 GFP-fusion protein (human) (UniProt Q92519).
T1 sequence: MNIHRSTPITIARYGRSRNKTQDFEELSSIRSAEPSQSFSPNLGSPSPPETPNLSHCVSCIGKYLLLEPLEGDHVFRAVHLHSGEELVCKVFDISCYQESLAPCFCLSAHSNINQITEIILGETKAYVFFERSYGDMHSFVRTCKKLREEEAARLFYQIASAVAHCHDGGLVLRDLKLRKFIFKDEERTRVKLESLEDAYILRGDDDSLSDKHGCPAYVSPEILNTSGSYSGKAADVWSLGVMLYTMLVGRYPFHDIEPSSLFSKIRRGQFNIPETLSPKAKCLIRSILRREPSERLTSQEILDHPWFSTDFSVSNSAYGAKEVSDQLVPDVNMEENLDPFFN
The test is described as follows: affinity purification with mass spectrometry; GFP-fusion bait from lysate of transfected HEK293T cells on GFP-Trap beads, 2 h at 4 °C; lysis buffer 50 mM Tris pH 8.0, 1 mM EDTA, 0.1% NP40, 250 mM NaCl, 10% glycerol; on-bead digestion, LC-MS, label-free, against GFP control (or mutant against mutant or wild type).

Results are given in words; binding and its absence hold for the method and conditions named. In cells and extracts the contact can be indirect. These calls come from enrichment with a bait or labelling near it, and not all partners need be listed. Sequences can lack the tags named with a protein.

B1: RAB3 GTPase Activating Protein Catalytic Subunit 1 (protein, UniProt Q15042 1-981)
chain: MAADSEPESEVFEITDFTTASEWERFISKVEEVLNDWKLIGNSLGKPLEKGIFTSGTWEEKSDEISFADFKFSVTHHYLVQESTDKEGKDELLEDVVPQSMQDLLGMNNDFPPRAHCLVRWYGLREFVVIAPAAHSDAVLSESKCNLLLSSVSIALGNTGCQVPLFVQIHHKWRRMYVGECQGPGVRTDFEMVHLRKVPNQYTHLSGLLDIFKSKIGCPLTPLPPVSIAIRFTYVLQDWQQYFWPQQPPDIDALVGGEVGGLEFGKLPFGACEDPISELHLATTWPHLTEGIIVDNDVYSDLDPIQAPHWSVRVRKAENPQCLLGDFVTEFFKICRRKESTDEILGRSAFEEEGKETADITHALSKLTEPASVPIHKLSVSNMVHTAKKKIRKHRGVEESPLNNDVLNTILLFLFPDAVSEKPLDGTTSTDNNNPPSESEDYNLYNQFKSAPSDSLTYKLALCLCMINFYHGGLKGVAHLWQEFVLEMRFRWENNFLIPGLASGPPDLRCCLLHQKLQMLNCCIERKKARDEGKKTSASDVTNIYPGDAGKAGDQLVPDNLKETDKEKGEVGKSWDSWSDSEEEFFECLSDTEELKGNGQESGKKGGPKEMANLRPEGRLYQHGKLTLLHNGEPLYIPVTQEPAPMTEDLLEEQSEVLAKLGTSAEGAHLRARMQSACLLSDMESFKAANPGCSLEDFVRWYSPRDYIEEEVIDEKGNVVLKGELSARMKIPSNMWVEAWETAKPIPARRQRRLFDDTREAEKVLHYLAIQKPADLARHLLPCVIHAAVLKVKEEESLENISSVKKIIKQIISHSSKVLHFPNPEDKKLEEIIHQITNVEALIARARSLKAKFGTEKCEQEEEKEDLERFVSCLLEQPEVLVTGAGRGHAGRIIHKLFVNAQRAAAMTPPEEELKRMGSPEERRQNSVSDFPPPAGREFILRTTVPRPAPYSKALPQRMYSVLTKEDFRLAGAFSSDTSFF
On to B1, for which the binding entry was “binds”.

B2: FKBP Prolyl Isomerase 4 (protein, UniProt Q02790 1-459)
chain: MTAEEMKATESGAQSAPLPMEGVDISPKQDEGVLKVIKREGTGTEMPMIGDRVFVHYTGWLLDGTKFDSSLDRKDKFSFDLGKGEVIKAWDIAIATMKVGEVCHITCKPEYAYGSAGSPPKIPPNATLVFEVELFEFKGEDLTEEEDGGIIRRIQTRGEGYAKPNEGAIVEVALEGYYKDKLFDQRELRFEIGEGENLDLPYGLERAIQRMEKGEHSIVYLKPSYAFGSVGKEKFQIPPNAELKYELHLKSFEKAKESWEMNSEEKLEQSTIVKERGTVYFKEGKYKQALLQYKKIVSWLEYESSFSNEEAQKAQALRLASHLNLAMCHLKLQAFSAAIESCNKALELDSNNEKGLFRRGEAHLAVNDFELARADFQKVLQLYPNNKAAKTQLAVCQQRIRRQLAREKKLYANMFERLAEEENKAKAEASSGDHPTDTEMKEEQKSNTAGSQSQVETEA
B2: the binding result is reported as “binds”.

B3: Plakophilin 2 (protein, UniProt Q99959 1-881)
chain: MAAPGAPAEYGYIRTVLGQQILGQLDSSSLALPSEAKLKLAGSSGRGGQTVKSLRIQEQVQQTLARKGRSSVGNGNLHRTSSVPEYVYNLHLVENDFVGGRSPVPKTYDMLKAGTTATYEGRWGRGTAQYSSQKSVEERSLRHPLRRLEISPDSSPERAHYTHSDYQYSQRSQAGHTLHHQESRRAALLVPPRYARSEIVGVSRAGTTSRQRHFDTYHRQYQHGSVSDTVFDSIPANPALLTYPRPGTSRSMGNLLEKENYLTAGLTVGQVRPLVPLQPVTQNRASRSSWHQSSFHSTRTLREAGPSVAVDSSGRRAHLTVGQAAAGGSGNLLTERSTFTDSQLGNADMEMTLERAVSMLEADHMLPSRISAAATFIQHECFQKSEARKRVNQLRGILKLLQLLKVQNEDVQRAVCGALRNLVFEDNDNKLEVAELNGVPRLLQVLKQTRDLETKKQITDHTVNLRSRNGWPGAVAHACNPSTLGGQGGRITRSGVRDQPDQHGLLWNLSSNDKLKNLMITEALLTLTENIIIPFSGWPEGDYPKANGLLDFDIFYNVTGCLRNMSSAGADGRKAMRRCDGLIDSLVHYVRGTIADYQPDDKATENCVCILHNLSYQLEAELPEKYSQNIYIQNRNIQTDNNKSIGCFGSRSRKVKEQYQDVPMPEEKSNPKGVEWLWHSIVIRMYLSLIAKSVRNYTQEASLGALQNLTAGSGPMPTSVAQTVVQKESGLQHTRKMLHVGDPSVKKTAISLLRNLSRNLSLQNEIAKETLPDLVSIIPDTVPSTDLLIETTASACYTLNNIIQNSYQNARDLLNTGGIQKIMAISAGDAYASNKASKAASVLLYSLWAHTELHHAYKKAQFKKTDFVNSRTAKAYHSLKD
Regarding B3, the binding entry is listed as “binds”.

B4: SRC Kinase Signaling Inhibitor 1 (protein, UniProt Q9C0H9 1-1183)
chain: MGNAPSQDPERSSPPMLSADDAEYPREYRTLGGGGGGGSGGRRFSNVGLVHTSERRHTVIAAQSLEALSGLQKADADRKRDAFMDHLKSKYPQHALALRGQQDRMREQPNYWSFKTRSSRHTQGAQPGLADQAAKLSYASAESLETMSEAELPLGFSRMNRFRQSLPLSRSASQTKLRSPGVLFLQFGEETRRVHITHEVSSLDTLHALIAHMFPQKLTMGMLKSPNTAILIKDEARNVFYELEDVRDIQDRSIIKIYRKEPLYAAFPGSHLTNGDLRREMVYASRESSPTRRLNNLSPAPHLASGSPPPGLPSGLPSGLQSGSPSRSRLSYAGGRPPSYAGSPVHHAAERLGGAPAAQGVSPSPSAILERRDVKPDEDLASKAGGMVLVKGEGLYADPYGLLHEGRLSLAAAAGDPFAYPGAGGLYKRGSVRSLSTYSAAALQSDLEDSLYKAAGGGGPLYGDGYGFRLPPSSPQKLADVAAPPGGPPPPHSPYSGPPSRGSPVRQSFRKDSGSSSVFAESPGGKTRSAGSASTAGAPPSELFPGPGERSLVGFGPPVPAKDTETRERMEAMEKQIASLTGLVQSALLRGSEPETPSEKIEGSNGAATPSAPCGSGGRSSGATPVSGPPPPSASSTPAGQPTAVSRLQMQLHLRGLQNSASDLRGQLQQLRKLQLQNQESVRALLKRTEAELSMRVSEAARRQEDPLQRQRTLVEEERLRYLNDEELITQQLNDLEKSVEKIQRDVSHNHRLVPGPELEEKALVLKQLGETLTELKAHFPGLQSKMRVVLRVEVEAVKFLKEEPQRLDGLLKRCRGVTDTLAQIRRQVDEGVWPPPNNLLSQSPKKVTAETDFNKSVDFEMPPPSPPLNLHELSGPAEGASLTPKGGNPTKGLDTPGKRSVDKAVSVEAAERDWEEKRAALTQYSAKDINRLLEETQAELLKAIPDLDCASKAHPGPAPTPDHKPPKAPHGQKAAPRTEPSGRRGSDELTVPRYRTEKPSKSPPPPPPRRSFPSSHGLTTTRTGEVVVTSKKDSAFIKKAESEELEVQKPQVKLRRAVSEVARPASTPPIMASAIKDEDDEDRIIAELESGGGSVPPMKVVTPGASRLKAAQGQAGSPDKSKHGKQRAEYMRIQAQQQATKPSKEMSGSNETSSPVSEKPSASRTSIPVLTSFGARNSSISF
For B4, the binding entry is “binds”.

These data come from paper PMC8699236.
